Test results reported in paper PMC5602300.
These are yes or no findings as the source states them, for the method shown. In cells and extracts the contact can be indirect. Some binding calls cover weakened binding; strength is not graded here. Tags and fused reporters may be left off the sequences shown.

Experiments:
Assay in all cases: pull-down + SEC; subunits co-expressed in Sf9 (MultiBac); His-tag purification on Ni-NTA, then Superose 6 gel filtration in 20 mM HEPES, 150 mM KCl, 1 mM DTT, pH 7.5
Astrin 1–693 (human) = molecular target: T1, Astrin 1–693 (human) (UniProt Q96R06)
T1 sequence: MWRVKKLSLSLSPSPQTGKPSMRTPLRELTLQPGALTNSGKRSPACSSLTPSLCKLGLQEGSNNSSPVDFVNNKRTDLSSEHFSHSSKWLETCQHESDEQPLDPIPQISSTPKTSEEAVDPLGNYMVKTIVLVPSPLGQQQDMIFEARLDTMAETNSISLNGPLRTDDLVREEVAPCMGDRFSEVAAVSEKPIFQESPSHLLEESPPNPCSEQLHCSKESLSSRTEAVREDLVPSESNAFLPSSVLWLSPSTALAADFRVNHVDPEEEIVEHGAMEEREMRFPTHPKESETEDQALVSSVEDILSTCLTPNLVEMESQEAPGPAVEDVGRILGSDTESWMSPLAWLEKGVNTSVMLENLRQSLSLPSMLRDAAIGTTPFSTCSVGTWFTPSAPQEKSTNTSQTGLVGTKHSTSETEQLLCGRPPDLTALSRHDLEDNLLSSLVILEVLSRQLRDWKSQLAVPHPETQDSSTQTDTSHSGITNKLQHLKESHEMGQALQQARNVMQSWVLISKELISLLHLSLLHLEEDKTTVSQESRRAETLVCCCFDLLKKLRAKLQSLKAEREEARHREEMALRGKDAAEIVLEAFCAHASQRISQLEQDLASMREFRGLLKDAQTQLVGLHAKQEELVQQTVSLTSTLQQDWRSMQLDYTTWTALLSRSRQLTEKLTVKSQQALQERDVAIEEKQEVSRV

Astrin 324–693 (human) = molecular target: T2, Astrin 324–693 (human) (UniProt Q96R06)
T2 sequence: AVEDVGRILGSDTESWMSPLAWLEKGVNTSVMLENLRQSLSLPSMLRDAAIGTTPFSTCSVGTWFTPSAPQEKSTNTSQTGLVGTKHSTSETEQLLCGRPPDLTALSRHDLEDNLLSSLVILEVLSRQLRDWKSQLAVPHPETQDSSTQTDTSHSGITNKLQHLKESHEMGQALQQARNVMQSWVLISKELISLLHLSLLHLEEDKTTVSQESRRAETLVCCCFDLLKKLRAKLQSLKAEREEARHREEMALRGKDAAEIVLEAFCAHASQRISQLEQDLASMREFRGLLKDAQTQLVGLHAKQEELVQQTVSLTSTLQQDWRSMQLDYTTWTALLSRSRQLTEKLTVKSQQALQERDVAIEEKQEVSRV

Astrin 465–693 (human) = molecular target: T3, Astrin 465–693 (human) (UniProt Q96R06)
T3 sequence: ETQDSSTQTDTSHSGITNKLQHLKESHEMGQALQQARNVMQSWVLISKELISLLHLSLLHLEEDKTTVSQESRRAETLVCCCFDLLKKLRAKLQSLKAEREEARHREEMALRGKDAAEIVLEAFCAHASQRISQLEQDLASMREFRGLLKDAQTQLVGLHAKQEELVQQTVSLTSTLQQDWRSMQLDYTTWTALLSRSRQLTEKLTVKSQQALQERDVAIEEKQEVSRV

[1] = molecular target: T4, Astrin 465–693 region without the predicted loop 465–482 (human) (UniProt Q96R06)
T4 sequence: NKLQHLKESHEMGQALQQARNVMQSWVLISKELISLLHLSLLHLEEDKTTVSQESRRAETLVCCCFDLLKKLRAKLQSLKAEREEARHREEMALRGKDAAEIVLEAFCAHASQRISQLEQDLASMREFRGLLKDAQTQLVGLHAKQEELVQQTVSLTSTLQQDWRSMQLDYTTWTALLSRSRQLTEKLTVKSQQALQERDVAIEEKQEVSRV

[2] = molecular target: T5, Astrin, full length (subunit of the reconstituted Astrin-SKAP complex) (human) (UniProt Q96R06)
T5 sequence: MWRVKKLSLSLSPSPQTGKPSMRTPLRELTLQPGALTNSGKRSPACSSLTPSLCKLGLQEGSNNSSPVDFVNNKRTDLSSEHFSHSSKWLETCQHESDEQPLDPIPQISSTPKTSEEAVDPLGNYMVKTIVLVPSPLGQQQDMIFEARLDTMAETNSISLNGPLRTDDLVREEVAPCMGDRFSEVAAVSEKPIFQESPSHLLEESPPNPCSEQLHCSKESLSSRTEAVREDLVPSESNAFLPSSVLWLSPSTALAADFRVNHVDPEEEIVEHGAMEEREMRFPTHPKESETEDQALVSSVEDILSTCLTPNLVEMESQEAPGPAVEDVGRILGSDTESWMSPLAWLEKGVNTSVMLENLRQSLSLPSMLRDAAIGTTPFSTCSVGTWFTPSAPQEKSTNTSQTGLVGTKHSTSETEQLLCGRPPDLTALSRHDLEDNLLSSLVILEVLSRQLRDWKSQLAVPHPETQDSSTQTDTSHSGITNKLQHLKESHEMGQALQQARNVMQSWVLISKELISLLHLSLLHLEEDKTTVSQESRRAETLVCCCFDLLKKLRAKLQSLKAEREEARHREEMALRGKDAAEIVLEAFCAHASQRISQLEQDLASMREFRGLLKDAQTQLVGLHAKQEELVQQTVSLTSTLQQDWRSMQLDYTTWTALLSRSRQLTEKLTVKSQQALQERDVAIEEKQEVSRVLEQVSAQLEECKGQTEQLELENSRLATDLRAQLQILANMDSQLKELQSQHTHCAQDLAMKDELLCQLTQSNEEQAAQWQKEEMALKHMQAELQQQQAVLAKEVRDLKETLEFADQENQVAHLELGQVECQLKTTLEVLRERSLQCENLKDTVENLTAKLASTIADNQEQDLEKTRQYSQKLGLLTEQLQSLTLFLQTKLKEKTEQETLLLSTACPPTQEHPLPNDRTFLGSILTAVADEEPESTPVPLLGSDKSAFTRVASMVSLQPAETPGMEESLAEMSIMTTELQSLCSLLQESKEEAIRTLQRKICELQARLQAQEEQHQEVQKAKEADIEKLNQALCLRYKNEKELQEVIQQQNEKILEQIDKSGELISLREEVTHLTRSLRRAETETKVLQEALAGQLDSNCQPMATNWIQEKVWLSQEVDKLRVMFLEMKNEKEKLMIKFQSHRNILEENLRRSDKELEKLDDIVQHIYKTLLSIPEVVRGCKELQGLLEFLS

Measured: binding

B1: MYCBP (protein, UniProt Q99417 1-103)
chain: MAHYKAADSKREQFRRYLEKSGVLDTLTKVLVALYEEPEKPNSALDFLKHHLGAATPENPEIELLRLELAEMKEKYEAIVEENKKLKAKLAQYEPPQEEKRAE
binds: Astrin 1–693 (human) | Astrin 324–693 (human) | Astrin 465–693 (human) | [1] | [2]
